Screen size: about 360,000 compounds; about 610 (0.17%) were called active. This list was built around the results that the source calls inconclusive (neither active nor inactive); the mix of calls is not that of the screen. Rule as the data show it: active = inhibition above about 30%; inconclusive = no clear call, values can overlap the other calls; inactive = below that.
test system: Botulinum neurotoxin type A light chain protease (Clostridium botulinum A str. ATCC 3502); experiment: blockers of BoNT/A LC substrate cleavage – biochemical, flow cytometry, MLPCN library, primary screen (AID 588499); conditions: multiplex microsphere protease substrate cleavage, at 10 µM, hits give high values; also: plate controls were buffer without enzyme for full effect and enzyme alone for no effect

Compound	inhibition
O=S(=O)(c1ccc(NC(=S)N/N=C/c2c3ccccc3cc3ccccc23)cc1)N1CCOCC1	active: 32.6%
COc1ccccc1C(CCNCc1ccc(N(C)C)cc1)c1ccc(OC(C)C)cc1 (configuration not stated)	inactive: -2.4%
CC(=O)NC12CC3CC(C1)CC(C(=O)N1CCN(S(=O)(=O)c4ccc(C(C)C)cc4)CC1)(C3)C2	inactive: 0.7%
COc1cc(C(=O)Nc2ccncc2)c([N+](=O)[O-])cc1OC	inconclusive: -28.7%
Cc1ccc2c(c1)oc(=O)n2CC(=O)c1ccccc1	inconclusive: -7.9%
CCN(CC)c1nc2cc(OC)ccc2cc1C#N	active: 30.8%
COC(=O)COc1nsnc1N1CCOCC1	inactive: -6.2%
C=CCN1C=CC(=O)[C@@H](OC(=O)Nc2ccc(Br)cc2)[C@H]1c1ccccc1Br	inactive: 0.1%
CCOC(=O)c1c[nH]c2c(C)cc(C)cc2c1=O	inconclusive: 1.2%
CCOC(=O)c1ccc(OC)c(OC)c1Cl	inconclusive: -21%
Cc1ccc(-c2cc(C(=O)N/N=C/c3c(C)nn(C)c3C)c3ccccc3n2)cc1C	inactive: -1.7%
CCOc1ccc(N/C(C)=C/C(=O)c2ccc3c(c2)OCCO3)cc1	inconclusive: -43.3%
O=C(OCC(F)(F)C(F)F)c1ccccc1C(=O)Oc1ccc(F)cc1F	inconclusive: 3.7%
Cc1nn(Cc2cccc(C(=O)NN)c2)c(C)c1Cl	inconclusive: 6.4%
Cc1cc(NC(=O)Cn2nc(C(F)(F)F)c3c2CCC3)n(-c2ccccc2)n1	inconclusive: 2.3%
C=CCn1c(SCC(C)=O)nnc1-c1ccc2ncccc2c1	inconclusive: -8.1%
COc1ccccc1NC(=O)CNS(=O)(=O)c1ccccc1	inconclusive: -5.2%
O=C(Nc1ccccc1Cl)C1CC(=O)N(c2ccccc2)C1 (configuration not stated)	inactive: 0.2%
Cc1cc(C(=O)N2CCC3(CC2)OCCO3)cs1	inconclusive: -4%
O=C(O)Cn1nc2ccccc2n1	inconclusive: -2.4%
CC1=Nn2c(nnc2-c2ccccc2F)SC1	inconclusive: 1.2%
CN1CCN(c2ncnc3c2ncn3[C@H]2CN(Cc3ccc(C(=O)O)cc3)C[C@@H](CO)O2)CC1	inactive: 0.2%
CCCNC(=O)c1ccc(N(Cc2ccccc2)S(C)(=O)=O)cc1	inconclusive: 3.3%

Compound	inhibition
C/C(=N\S(=O)(=O)c1ccc(C)cc1)N1CCN(S(=O)(=O)c2ccccc2)C1C(C)C (configuration not stated)	inactive: 1%
CC(C)c1cccc(C(C)C)c1NC(=O)CCN1C(=O)NC2(CCCC2)C1=O	inactive: 0.3%
Cc1ccc(-n2ncc3c(=O)[nH]cnc32)c(C)c1	inconclusive: -5.1%
O=C(O)CC(CC(=O)Nc1ccc(-n2ccc(C(F)(F)F)n2)cc1)c1ccccc1 (configuration not stated)	inconclusive: -4.1%
O=C(NCc1cccc(Cl)c1)c1cccc(S(=O)(=O)N2CCCC2)c1	inactive: -0.6%
CCN(CC)c1ccc(N=Cc2ccc(N(CC)CC)cc2O)cc1	inconclusive: 10.8%
Cc1nnc2ccc(N3CCC4(CC3)OCCO4)nn12	inconclusive: 2.8%
COc1ccc(C2C(=O)N(C3CCCCC3)CC(=O)N2Cc2ccco2)cc1 (configuration not stated)	inconclusive: 0.1%
O=C(Cn1cc([N+](=O)[O-])cn1)Nc1ccn(Cc2c(F)c(F)cc(F)c2F)n1	inconclusive: -1%
CCCOC(=O)C1C2C=CC(C2)C1C(=O)OCC(=O)c1ccccc1 (configuration not stated)	inconclusive: 0.1%
COCCCNC(=O)CN(c1cc(Cl)cc(Cl)c1)S(C)(=O)=O	inconclusive: 2.1%
CC(=O)Nc1ccc(S(=O)(=O)N(C)CC(=O)OCC(=O)c2ccc3c(c2)NC(=O)CO3)cc1	inactive: 2%
COc1ccc(CN2CCN(C3CCOCC3)CC2CCO)c(C)c1C (configuration not stated)	inactive: 0%
COc1ccc(OC)c(CC(=O)O)c1	inconclusive: -2.5%
O=C1CC(N(Cc2ccc3c(c2)OCO3)C(=O)Nc2ccc(F)cc2)C(=O)N1c1ccccc1 (configuration not stated)	inconclusive: 0.2%
Cc1ccc(C)c(S(=O)(=O)C(C#N)c2nc3ccccc3nc2N2CCOCC2)c1 (configuration not stated)	inconclusive: -3.7%
Cc1ccc(S(=O)(=O)Nc2cc(C)cn(Cc3ccc(F)cc3)c2=O)cc1	inactive: 1.9%
O=S(=O)(c1ccc(-c2nnc(SCc3ccccc3)o2)cc1)N1CCCC1	inconclusive: 2.3%
Cc1cc(=O)oc2c(C)c(OCC(=O)NC3CC(C)(C)NC(C)(C)C3)ccc12	inactive: -2.7%
Cc1ccc(S(=O)(=O)N(C)C)cc1NC(=O)c1sccc1Cl	inconclusive: -6.4%
CC1CCN(c2nc3nonc3nc2N2CCC(C)CC2)CC1	inconclusive: -2%
CC(=O)N1CCc2c(sc(NC(=O)C3CCCN3S(=O)(=O)c3cccs3)c2C#N)C1 (configuration not stated)	inconclusive: 25.3%
COc1ccc(-c2nnnn2C)cc1S(=O)(=O)NCc1ccccc1	inconclusive: -1.8%

Compound	inhibition
CN(C)c1nc(SCCOC(=O)COc2ccc(Cl)cc2Cl)nc(N(C)C)n1	inconclusive: 1.1%
Cc1ccc(S(=O)(=O)Nc2ccc3c(c2)nc2n3CCN(Cc3ccccc3)C2)cc1	inactive: 6.5%
CC(=O)Nc1ccc(NC(=O)CSc2nnc(CNc3ccc(F)cc3)n2CC2CCCO2)cc1 (configuration not stated)	inactive: -0.1%
COc1ccc(CCNC(=O)CN(c2ccccc2OC)S(=O)(=O)c2ccc(C)cc2)cc1	inactive: 2.6%
CCOC(=O)c1ccc(Nc2nc(C)cc(C)c2C#N)cc1	inconclusive: -1.6%
Nc1cc(=O)n(Cc2ccccc2)c(=O)n1-c1ccc(Cl)cc1	inconclusive: -4.2%
CC1CCCN(CCCOc2ccccc2-c2ccccc2)C1 (configuration not stated)	inactive: -0.4%
O=C(Nc1ccc(S(=O)(=O)Nc2ccccn2)cc1)c1cccc(Br)c1	inactive: 1.8%
Cc1noc(C)c1-c1nc(CSc2ccccc2)no1	inconclusive: -0.7%
O=C(CSc1ccccc1)N1CCc2ccccc21	inactive: -0.3%
O=C(Nc1ccccc1Cl)c1csc(-c2cccnc2)n1	inconclusive: -19.4%
CCN1CCC(NCCc2ccc(F)cc2)CC1	inconclusive: 5.5%
COC(=O)c1ccc(COc2ccc(NC(C)=O)cc2)o1	inconclusive: -35%
CCc1ccc(N2C(=O)/C(=C/c3cccs3)N(CC(=O)OC)C2=S)cc1	inconclusive: 4.1%
Cc1onc(-c2ccccc2)c1C(=O)/C=C/N(C)C	inconclusive: 4.6%
Cc1ccc(-n2cc(CN3CCN(C(=O)c4ncn[nH]4)CC3)c(-c3ccc(F)cc3)n2)cc1	inactive: 0.1%
CCCCN(C(C)=O)C1CC(=O)N(c2ccc(OCCC)cc2)C1=O (configuration not stated)	inconclusive: 28.3%
Cc1ccc(C)c(S(=O)(=O)NCc2ccc(C(=O)N3CCN(C)CC3)cc2)c1	inconclusive: 0.2%
COc1cc(Br)cc(CN2CCN(C)CC2)c1O	inconclusive: 5.8%
O=C(/C=C(O)/C=C/c1ccc(O)cc1)/C=C/c1ccc(O)cc1	active: 38.1%
COc1cc(CNCc2ccc(Br)cc2)cc(OC)c1	inactive: -1%
COCCNc1nnc(SCC(=O)NNC(=O)c2ccccc2)s1	inactive: 0.7%
O=C(NCCCc1ccccc1)C1CC(=O)N(c2ccc3c(c2)OCCO3)C1 (configuration not stated)	inconclusive: 2.6%

Compound	inhibition
CN(C)C(=O)N(CCCN1CCOCC1)Cc1cccc2ccccc12	inactive: 0.1%
CC(=O)c1csc(COc2cc(Cl)cc(Cl)c2)n1	inconclusive: -7.4%
CCCNc1c(N)n(-c2ccccc2)c(=O)[nH]c1=O	inconclusive: 1.8%
Cc1cc(-c2c(C(=O)N3CCOCC3)c(C)nn2-c2cccc(C(F)(F)F)c2)no1	inconclusive: 28.3%
CCN(C(=O)COC(=O)CCCN1C(=O)c2cccc3cccc(c23)C1=O)C1CCS(=O)(=O)C1 (configuration not stated)	inactive: 3.2%
Cc1c(NC(=O)c2ccccc2N(C)S(=O)(=O)c2ccccc2)c(=O)n(-c2ccccc2)n1C	active: 43.7%
CCC(C)c1ccc(N2C(=O)NC(=O)/C(=C/c3cccn3CCOc3ccc(C)cc3)C2=O)cc1 (configuration not stated)	inactive: 0.1%
CCNC(=O)CN(c1ccc(CC)cc1)S(C)(=O)=O	inconclusive: -2.3%
Cc1cc(NC(=O)Nc2ccc(Cl)c(Cl)c2)n(-c2ccccc2)n1	inconclusive: -49.1%
CCOC(=O)C1(C)CCN1C(=O)c1ccc(C(=O)OC)cc1 (configuration not stated)	inactive: 0.3%
CC1(C)SC[C@H](C(=O)Nc2cccc(Cl)c2)N1C=O	inconclusive: 5.1%
Cn1c(-c2cccc(OCc3ccccc3)c2)nc2c1c(=O)[nH]c(=O)n2Cc1ccccc1	inactive: -0.2%
N#Cc1nc(-c2ccc(F)cc2)oc1NCCN1CCOCC1	inactive: -0.6%
CCCNC(=O)C(Cc1ccc(F)cc1)NC(=O)c1ccccc1 (configuration not stated)	inactive: 0.2%
O=Cc1cccc(OC(=O)Nc2ccccc2)c1	inactive: 0.6%
COc1ccc(CCN(C)C2CCCN(C(=O)CCSC)C2)cc1OC (configuration not stated)	inconclusive: -0.4%
N#Cc1ccccc1NS(=O)(=O)c1cc2c3c(c1)CCC(=O)N3CCC2	inactive: -6.5%
CCc1ccc(C(=O)Nc2cccnc2Oc2ccc(Cl)cc2)cc1	inconclusive: 17.2%
COC(=O)[C@]12CCCCC=C1N(Cc1ccc(Cl)cc1Cl)C(=O)[C@H](CC(=O)NCC1CCCCC1)C2	inactive: -0.8%
N=c1ccn(Cc2ccc([N+](=O)[O-])cc2)cc1	inconclusive: -1.6%
Cc1ccc(S(=O)(=O)NCCC(=O)NC2CCCC2)cc1	inconclusive: 2.9%
Cc1ccc(NC(=O)CN(C)C(=O)COC(=O)c2ccc(Cl)cc2O)cc1	inactive: -2.3%
Cc1ccc(N(C(=O)Cn2nnc3ccccc32)C(C(=O)NC2CCCCC2)c2cn(C)nc2C)cc1 (configuration not stated)	inconclusive: -2.4%

Another view of 17 compounds above.
Compound | inhibition
O=S(=O)(c1ccc(NC(=S)N/N=C/c2c3ccccc3cc3ccccc23)cc1)N1CCOCC1 | active: 32.6%
Cc1cc(C(=O)N2CCC3(CC2)OCCO3)cs1 | inconclusive: -4%
O=C(O)CC(CC(=O)Nc1ccc(-n2ccc(C(F)(F)F)n2)cc1)c1ccccc1 (configuration not stated) | inconclusive: -4.1%
O=C(NCc1cccc(Cl)c1)c1cccc(S(=O)(=O)N2CCCC2)c1 | inactive: -0.6%
COc1ccc(CN2CCN(C3CCOCC3)CC2CCO)c(C)c1C (configuration not stated) | inactive: 0%
Cc1ccc(C)c(S(=O)(=O)C(C#N)c2nc3ccccc3nc2N2CCOCC2)c1 (configuration not stated) | inconclusive: -3.7%
Cc1ccc(S(=O)(=O)Nc2cc(C)cn(Cc3ccc(F)cc3)c2=O)cc1 | inactive: 1.9%
O=S(=O)(c1ccc(-c2nnc(SCc3ccccc3)o2)cc1)N1CCCC1 | inconclusive: 2.3%
CCCCN(C(C)=O)C1CC(=O)N(c2ccc(OCCC)cc2)C1=O (configuration not stated) | inconclusive: 28.3%
COc1cc(CNCc2ccc(Br)cc2)cc(OC)c1 | inactive: -1%
O=C(NCCCc1ccccc1)C1CC(=O)N(c2ccc3c(c2)OCCO3)C1 (configuration not stated) | inconclusive: 2.6%
CCNC(=O)CN(c1ccc(CC)cc1)S(C)(=O)=O | inconclusive: -2.3%
CCOC(=O)C1(C)CCN1C(=O)c1ccc(C(=O)OC)cc1 (configuration not stated) | inactive: 0.3%
COc1ccc(CCN(C)C2CCCN(C(=O)CCSC)C2)cc1OC (configuration not stated) | inconclusive: -0.4%
COC(=O)[C@]12CCCCC=C1N(Cc1ccc(Cl)cc1Cl)C(=O)[C@H](CC(=O)NCC1CCCCC1)C2 | inactive: -0.8%
N=c1ccn(Cc2ccc([N+](=O)[O-])cc2)cc1 | inconclusive: -1.6%
Cc1ccc(S(=O)(=O)NCCC(=O)NC2CCCC2)cc1 | inconclusive: 2.9%

From PubChem BioAssay AID588499 (NMMLSC, 2011)
